Results as given in patent publication US6664036B1, “Homogeneous single-part color developer per color film processing and method of using same” (priority 2002, dated 2003).

Tests used:
[1] = Sensitometric effect of co-solvents, density deviation from standard C-41 process; conditions: KODAK MAX 400
[2] = as above; conditions: AGFA HDC PLUS 400
[3] = as above; conditions: KODAK Advantix 200
[4] = 35 g/l co-solvent, antioxidant 2.0 g/l HAS, Process 2 minus Process 1
[5] = 9.0 g/l co-solvent, antioxidant 4.0 g/l AO-1, Process 3 minus Process 1
[6] = 9.0 g/l co-solvent, antioxidant 7.1 g/l AO-1, Process 3 minus Process 1

Structure (SMILES): OCCOCCO [Comp-8, Diethylene glycol, reference compound]
- Sum of Absolute Value of R,G,B Density Deviations (over 21 steps) [1, 4]: 2.285
- Sum of Absolute Value of R,G,B Density Deviations (over 21 steps) [2, 4]: 3.689
- Sum of Absolute Value of R,G,B Density Deviations (over 21 steps) [3, 4]: 2.374

Structure (SMILES): Cc1ccc(C(=O)O)cc1 [CS-2, p-Toluic acid]
- Sum of Absolute Value of R,G,B Density Deviations (over 21 steps) [1, 5]: 1.854
- Sum of Absolute Value of R,G,B Density Deviations (over 21 steps) [2, 5]: 1.351
- Sum of Absolute Value of R,G,B Density Deviations (over 21 steps) [3, 5]: 1.615

Structure (SMILES): O=C([O-])c1ccccc1.[Na+] [Sodium Benzoate]
- Sum of Absolute Value of R,G,B Density Deviations (over 21 steps) [1, 6]: 0.997
- Sum of Absolute Value of R,G,B Density Deviations (over 21 steps) ([1]; 9.0 g/l co-solvent, antioxidant 8.42 g/l AO-2, Process 3 minus Process 1): 1.45
- Sum of Absolute Value of R,G,B Density Deviations (over 21 steps) ([2]; 9.0 g/l co-solvent, antioxidant 7.0 g/l AO-1, Process 3 minus Process 1): 2.476
- Sum of Absolute Value of R,G,B Density Deviations (over 21 steps) [3, 6]: 1.18
